Results taken from PubChem BioAssay AID493014 (National Center for Advancing Translational Sciences (NCATS), 2011).
Some of the results follow. Further columns of the screen follow, without active or inactive calls. The list favours compounds with an active or inconclusive main result. Words in brackets tell the shape of the fitted curve; partial curves, single points and poor fits give uncertain potencies.

Experiment: qHTS Assay to Find Inhibitors of Chronic Active B-Cell Receptor Signaling
Settings: ABC-DLBCL IkBa-CBG/CBR reporter, luminescence ratio (green luciferase fused to IkBa over red control in TMD8 lymphoma cells), 4 h
Method in brief: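 TMD8 ABC-DLBCL cells carrying doxycycline-inducible green luciferase fused to IkappaBalpha plus unfused red luciferase were exposed to compounds (up to 46 uM) for 4 hrs at 37C. Activity came from the overlap-corrected green/red luminescence ratio.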

[1] = measured here: CBR red luminescence, cell number

SMILES | AC50 [1] | AC50 (measured here: IkBa-CBG green luminescence)
COc1cccc(-c2nnc(SCC(=O)N3CCOCC3)o2)c1 | 22.4 µM [falling, single point] | 
NS(=O)(=O)c1ccc(NC(=O)CCC2CCCCC2)cc1 | 2.82 µM [rising, full curve, poor fit] | 
CC1CCN(c2ccc([N+](=O)[O-])cn2)CC1 | 3.66 µM [rising, full curve, poor fit] | 
CCOC(=O)C1CCCCN1Cc1ccc(-c2ccccc2)cc1 (centres undefined) | 35.5 µM [rising, single point] | 
COc1cccc(C(=O)Nc2ccccc2C(=O)N2CCCC2)c1 | 4.61 µM [falling, partial curve, poor fit] | 
O=C(Nc1ccc(F)cc1)N(CCCN1CCOCC1)Cc1cc2cc3c(cc2[nH]c1=O)OCCO3 | 6.31 µM [falling, partial curve] | 
CCOC(=O)c1c(NC(=O)c2cc(C(C)C)on2)sc(C(C)=O)c1C | 6.51 µM [falling, single point] | 
CCOc1ccc(-n2c(N)c(C(=O)NCc3ccco3)c3nc4ccccc4nc32)cc1 | 29.1 µM [falling, single point] | 
O=C(Nc1ccc(N2CCOCC2)c(Cl)c1)C1CCCCC1 | 16.4 µM [falling, partial curve, poor fit] | 
CCNc1nc(NCC)nc(SCCOC(=O)COc2ccc(Cl)cc2Cl)n1 | 23.1 µM [falling, partial curve] | 
CCCNC(=O)NNC(=O)c1cc(-c2ccc3c(c2)OCO3)nc2ccccc12 | 15.8 µM [falling, partial curve, poor fit] | 
COc1cccc(-c2nc(Oc3cccc(C)c3C)c3ccccc3n2)c1O | 0.206 µM [rising, full curve, poor fit] | 
Cc1onc(-c2ccccc2Cl)c1C(=O)NCc1nnnn1-c1ccc(F)cc1 | 14.6 µM [rising, partial curve, poor fit] | 
CC(/C=N/NC(=O)c1cc(-c2ccncc2)nc2ccccc12)=C\c1ccco1 | 15.8 µM [rising, partial curve] | 10 µM [falling, partial curve]
O=C(Nc1ccccc1F)Nc1ccccc1Br | 5.62 µM [falling, partial curve, poor fit] | 
CCCOc1ccc(/C=N/NC(=O)c2ccc(Cn3cc([N+](=O)[O-])cn3)o2)cc1 | 7.08 µM [falling, partial curve] | 
COc1ccc(NC(=O)c2cc3ccccc3cc2OC)cc1OC | 20 µM [falling, single point] | 
O=[N+]([O-])c1ccc(-c2nnc3cccc(Cl)n23)cc1 | 10 µM [rising, partial curve] | 

Reprinted from above for reference:
SMILES | AC50 [1] | AC50 (measured here: IkBa-CBG green luminescence)
NS(=O)(=O)c1ccc(NC(=O)CCC2CCCCC2)cc1 | 2.82 µM [rising, full curve, poor fit] | 
CC1CCN(c2ccc([N+](=O)[O-])cn2)CC1 | 3.66 µM [rising, full curve, poor fit] | 
CCOC(=O)C1CCCCN1Cc1ccc(-c2ccccc2)cc1 (centres undefined) | 35.5 µM [rising, single point] | 
COc1cccc(C(=O)Nc2ccccc2C(=O)N2CCCC2)c1 | 4.61 µM [falling, partial curve, poor fit] | 
